Data published in PubChem BioAssay AID504467 (National Center for Advancing Translational Sciences (NCATS), 2011).
In all, about 330,000 compounds went through this assay and about 7,700 (2.3%) were called active. The shares of active, inactive and inconclusive entries below differ from those in the screen. Calls come from the whole dose curve; as a rule, active = well fitted inhibition curve with a large enough effect; inconclusive = small, poorly fitted or top-dose-only effect, or effect the other way; inactive = flat fitted curve, though single readings scatter. Where the call is inconclusive, the potency comes from a doubtful curve fit.

Test: qHTS screen for small molecules that inhibit ELG1-dependent DNA repair in human embryonic kidney (HEK293T) cells expressing luciferase-tagged ELG1; note: nearly all actives have a fitted effect of over 55% in size
Details: HEK293T ELG1-luciferase reporter, luminescence, 16 h, DNA damage induced by 5-fluorouridine; activity change, negative = inhibition: at 46.1 µM (top of the series)
Procedure, shortened: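 Luminescence from the luciferase reporter, measured 30 min after ONE-Glo reagent at room temperature, was the read-out. Beforehand, 2,000 cells per well were exposed for 16 hr at 37 °C to 5-fluorouridine together with compound or vehicle.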
% is set by controls: 0 for no effect and ±100 for the full control effect; potency is the fitted concentration of half-maximal effect.

| SMILES | Potency | activity change, negative = inhibition |
| --- | --- | --- |
| COc1cc(C(=O)NCc2nnc(SCC(=O)Nc3cc(C)cc(C)c3)o2)cc(OC)c1OC | inconclusive: 16.4 µM [inhibitor, single point] |  |
| COC(=O)C1=C(C)Nc2nc3ccccc3n2C1c1cc(OC)c(OC)c(OC)c1 (stereo not given) | inconclusive: 8.2 µM [activator, partial curve] |  |
| CCOC(=O)Cc1cn(C(=O)OC(C)(C)C)c2ccccc12 | inactive |  |
| CCOc1ccc(NC(=O)NC(C)CC)cc1 (stereo not given) | inconclusive: 29.1 µM [activator, single point] |  |
| Cc1ccc(C(=O)NC(=S)NCC2CCCO2)cc1[N+](=O)[O-] (stereo not given) | inactive |  |
| CCCS(=O)(=O)Nc1cccc(-c2ccc3nnc(C)n3n2)c1 | inconclusive: 20.6 µM [activator, partial curve] |  |
| COc1ccc(N2CCN(CCCNC(=O)Nc3ccccc3)CC2)cc1 | inconclusive: 20.6 µM [inhibitor, partial curve] |  |
| Cc1ncc(CO)c(/C=N/NC(=O)c2cc3c(s2)CCCC3)c1O | active: 3.26 µM |  |
| O=C(Nc1ccc2c(c1)OCO2)OCc1ccccc1 | inconclusive: 2.91 µM [activator, full curve] |  |
| CC(C)(C)C1CCc2sc(-c3nnc(CCl)o3)cc2C1 (stereo not given) | inconclusive: 23.1 µM [activator, single point] |  |
| CCN(c1ccccc1)S(=O)(=O)c1ccc(C(=O)Nc2nnc(C3CC3)o2)cc1 | active: 10.3 µM |  |
| Nc1c(C=C2C=CC(=O)C=C2)c(=O)nc2snc(SCc3ccccc3)n12 | inconclusive: 5.8 µM [activator, full curve] |  |
| COc1cc(OC)c(C2CC(=O)N3CN(c4ccccc4)CSC3=C2C#N)cc1OC (stereo not given) | inactive |  |
| CC(=O)c1ccc(NC(=O)Nc2cccc(Cl)c2)cc1 | inconclusive: 2.91 µM [activator, full curve] |  |
| Cc1nn(C)cc1CNC(=O)c1cnn2c1NC(c1ccc(Br)cc1)CC2C(F)(F)F (stereo not given) | inconclusive: 29.1 µM [inhibitor, partial curve, poor fit] |  |
| COc1ccc(OC)c(NC(=O)CN(Cc2ccc(F)cc2)C2CCCCC2)c1 | inactive |  |
| COc1ccccc1-c1ccc(SCC(=O)NCCc2ccccc2)nn1 | inactive |  |
| O=C(NNC(=O)C1CC(=O)N(Cc2ccccc2)C1)c1ccc(Br)cc1 (stereo not given) | inactive |  |
| Cn1c(CN2CCN(c3ccc(Cl)cc3)CC2)nc2ccccc21 | inconclusive: 13 µM [inhibitor, partial curve, poor fit] |  |
| CCC(=O)Nc1ccc(S(=O)(=O)N2CCC(c3nc4ccccc4[nH]3)CC2)cc1 | active: 18.3 µM |  |
| O=C(N/N=C/C1CCCCC1)c1cc(Cl)ccc1O | inactive |  |
| c1ccc(C[C@H]2CNCCN2CCC23CC4CC(CC(C4)C2)C3)cc1 |  | inconclusive: 5.99% [activator] |
| CCc1ccc(S(=O)(=O)Nc2ccc(-c3nc4cccnc4s3)cc2)s1 | inconclusive: 16.4 µM [activator, partial curve] |  |
| COc1cccc2c1C(=O)C=C(C)C2=O | inconclusive: 29.1 µM [inhibitor, single point] |  |
| O=C(O)CCN1C(=O)c2ccc(NC(=O)c3cccs3)cc2C1=O | inactive |  |

Some of the entries so far, with each value named:
COc1cc(C(=O)NCc2nnc(SCC(=O)Nc3cc(C)cc(C)c3)o2)cc(OC)c1OC
  Potency: inconclusive: 16.4 µM [inhibitor, single point]
COc1cc(OC)c(C2CC(=O)N3CN(c4ccccc4)CSC3=C2C#N)cc1OC (stereo not given)
  Potency: inactive
CC(=O)c1ccc(NC(=O)Nc2cccc(Cl)c2)cc1
  Potency: inconclusive: 2.91 µM [activator, full curve]

Later entries

| SMILES | Potency | activity change, negative = inhibition |
| --- | --- | --- |
| COc1cccc(C(=O)Nc2nnc(-c3ccc(OC)cc3OC)s2)c1 | inactive |  |
| Cc1ccc(CN(C(=O)Cn2nnc3ccccc32)C(C(=O)NCc2ccco2)c2ccc(C)o2)cc1 (stereo not given) | active: 23.1 µM |  |
| Cc1cc(=O)oc2c3c(cc(OCC(=O)NCCN4CCOCC4)c12)OC(C)(C)CC3 | inconclusive: 0.082 µM [activator, partial curve, poor fit] |  |
| O=C(COc1ccc(-n2cnnn2)cc1)Nc1cc(Cl)cc(Cl)c1 | inconclusive: 25.9 µM [inhibitor, single point] |  |
| CCN(C(=O)C1=COCCO1)c1nc2c(C)cccc2s1 | inconclusive: 25.9 µM [activator, single point] |  |
| O=C(c1ccc(COc2ccccc2[N+](=O)[O-])o1)N1CCCCCC1 | inconclusive: 18.4 µM [activator, partial curve] |  |
| Cn1c(N)c(C(=O)CSc2nc3ccccc3c(=O)n2Cc2ccccc2)c(=O)n(C)c1=O | inactive |  |
| Cc1ccc(C(=O)Nc2cccc(S(=O)(=O)N(C)c3ccccc3)c2)o1 | inconclusive: 25.9 µM [inhibitor, partial curve, poor fit] |  |
| Cc1cc(Nc2cc(F)ccc2C)n2ncnc2n1 | inconclusive: 29.1 µM [activator, single point] |  |
| Cc1onc(-c2ccccc2)c1C(=O)NN1CCOCC1 | inactive |  |
| Cc1nc2ccccc2c2c1C(=O)N(c1cccc(C(=O)O)c1)C2=O | inactive |  |
| Cc1csc(NC(=O)c2sc3nc(-c4cccs4)ccc3c2N)n1 | inconclusive: 6.51 µM [activator, single point] |  |
| Cc1cccc(CCN2C(Nc3ccccc3)=NC[C@@H]2CC(C)C)c1 | inactive |  |
| CCn1cc(Br)c(C(=O)Nc2cccc(Cl)c2)n1 | inconclusive: 29.1 µM [activator, single point] |  |
| CCOc1ccc(N(CC(=O)OC)S(=O)(=O)c2ccc(OC)c(OC)c2)cc1 | inactive |  |
| COc1ccc(C(=O)Nc2cccc(-c3nc4ncccc4o3)c2C)cc1OC | inconclusive: 22.4 µM [inhibitor, single point] |  |
| CCOC(=O)C1=C(C)Nc2nc(SCC)nn2C1c1ccc(OC)cc1 (stereo not given) | inconclusive: 20.6 µM [activator, partial curve, poor fit] |  |
| FC(F)(F)c1cccc(NC(=S)N2CCCC2)c1 | inactive |  |
| Cc1ccc(C)c(-n2c(=O)c(C#N)cc3c(=O)n4ccccc4nc32)c1 | inactive |  |
| CCn1c(COc2ccc(C)cc2)nnc1SCc1nc2ccccc2[nH]1 | inconclusive: 20.6 µM [inhibitor, partial curve, poor fit] |  |
| Cc1ccc(OCC(=O)Nc2ccncc2)c(C)c1 | inconclusive: 20.6 µM [activator, single point] |  |
| COc1ccc(C(C)NC(=O)CC23CC4CC(CC(C4)C2)C3)cc1 (stereo not given) | inactive |  |
| Clc1ccccc1Nc1nnc(-c2ccncc2)s1 | inconclusive: 0.517 µM [activator, full curve] |  |
| Cc1cccc(-c2cc(C(=O)N3CCCc4ccccc43)c3ccccc3n2)c1 | active: 7.31 µM |  |
| Cc1cc([N+](=O)[O-])nn1CC(=O)NC1CCCCC1 | inactive |  |

| SMILES | Potency | activity change, negative = inhibition |
| --- | --- | --- |
| Cc1ccc(S(=O)(=O)N2CCN(C(=O)CSc3nc(N)cc(=O)[nH]3)CC2)c(C)c1 | inconclusive: 29.1 µM [inhibitor, single point] |  |
| Cc1ccc(S(=O)(=O)N2CCOCC2)cc1C(=O)NCCN1C(=O)S/C(=C\c2ccccc2Cl)C1=O | active: 20.6 µM |  |
| COc1ccc(C2=NN(C(N)=S)C(c3ccccc3)C2)cc1 (stereo not given) | inconclusive: 29.1 µM [inhibitor, single point] |  |
| COc1ccc(C(=O)NC(CO)c2nnc(SCc3ccc(Cl)c(Cl)c3)n2C)cc1 (stereo not given) | inactive |  |
| Cc1cc(N2C(=O)C(O)=C(C(=O)c3ccco3)C2c2ccccc2F)no1 (stereo not given) | inconclusive: 5.17 µM [inhibitor, full curve, poor fit] |  |
| COc1cc(OC)c(OC)cc1CN1CCCC(C(=O)c2ccccc2SC)C1 (stereo not given) | inactive |  |
| CCOC(CNC(=O)C(=O)Nc1cc2c3c(c1)CCC(=O)N3CCC2)OCC | inconclusive: 14.6 µM [activator, partial curve] |  |
| O=C(Nc1ccc2c(c1)OCCO2)c1cc(F)c(F)cc1Cl | inconclusive: 8.2 µM [activator, partial curve] |  |
| Cc1ccc(CNC(=O)CSc2ncc(C(=O)Nc3ccccc3)c(=O)n2C)cc1 | inconclusive: 32.6 µM [activator, partial curve, poor fit] |  |
| O=C(NC1CCCCC1)C1CCCN(S(=O)(=O)c2cccs2)C1 (stereo not given) | inactive |  |
| COCC1CCN(Cc2nc(-c3ccc4c(c3)OCO4)no2)C1 (stereo not given) | inconclusive: 14.6 µM [activator, partial curve] |  |
| O=C(NNC(=S)NC1CCCCC1)c1ccccc1Br | inactive |  |
| COc1ccc(NC(=O)c2csc(C)c2)cc1OC | inconclusive: 18.3 µM [activator, partial curve] |  |
| N#CCC(=O)Nc1sc2c(c1C(N)=O)CCCC2 | inactive |  |
| CCCCOc1ccc(N2C(=O)CC(NCc3ccncc3)C2=O)cc1 (stereo not given) | inactive |  |
| O=C(NCC1CCCN(C(=O)c2cscn2)C1)c1ccccc1Cl (stereo not given) | inconclusive: 23.1 µM [activator, single point] |  |
| Cn1c(SCC(=O)N2CCN(S(=O)(=O)c3ccc(Cl)cc3)CC2)nc2ccccc21 | inconclusive: 16.4 µM [inhibitor, single point] |  |
| COc1ccc(-c2cc3c(=O)n(CC(=O)NCCCc4ccccc4)ncn3n2)cc1 | inconclusive: 5.8 µM [activator, partial curve] |  |
| Cc1cc(C)n(-c2nc(NC(C)(C)C)nc(NC(C)(C)C)n2)n1 | inconclusive: 1.58 µM [inhibitor, full curve, poor fit] |  |
| CCNC(=S)NNC(=O)c1cc(-c2cc(C)ccc2C)nc2ccccc12 | inactive |  |
| O=C(OCc1c(Cl)nc2sccn12)c1cc2c(s1)CCCC2 | inactive |  |
| O=C(CCCc1ccccc1)NCCS(=O)(=O)N1CCN(c2ccccc2F)CC1 | inconclusive: 14.6 µM [activator, partial curve, poor fit] |  |
| C=CCN1C(=O)N/C(=C/c2ccc(C)o2)C1=O | inactive |  |
| C(=C\c1ccc2ccccc2n1)/c1ccccc1 | inconclusive: 0.259 µM [activator, full curve] |  |
| COc1ccc(CN(CC2CCCO2)C(=O)c2cc3sccc3n2C)c(OC)c1 (stereo not given) | inconclusive: 23.1 µM [inhibitor, single point] |  |
